Sequences of proteins named here, by UniProt entry; tags and fusion partners are left off.
UniProt P18054, whole entry, looked up: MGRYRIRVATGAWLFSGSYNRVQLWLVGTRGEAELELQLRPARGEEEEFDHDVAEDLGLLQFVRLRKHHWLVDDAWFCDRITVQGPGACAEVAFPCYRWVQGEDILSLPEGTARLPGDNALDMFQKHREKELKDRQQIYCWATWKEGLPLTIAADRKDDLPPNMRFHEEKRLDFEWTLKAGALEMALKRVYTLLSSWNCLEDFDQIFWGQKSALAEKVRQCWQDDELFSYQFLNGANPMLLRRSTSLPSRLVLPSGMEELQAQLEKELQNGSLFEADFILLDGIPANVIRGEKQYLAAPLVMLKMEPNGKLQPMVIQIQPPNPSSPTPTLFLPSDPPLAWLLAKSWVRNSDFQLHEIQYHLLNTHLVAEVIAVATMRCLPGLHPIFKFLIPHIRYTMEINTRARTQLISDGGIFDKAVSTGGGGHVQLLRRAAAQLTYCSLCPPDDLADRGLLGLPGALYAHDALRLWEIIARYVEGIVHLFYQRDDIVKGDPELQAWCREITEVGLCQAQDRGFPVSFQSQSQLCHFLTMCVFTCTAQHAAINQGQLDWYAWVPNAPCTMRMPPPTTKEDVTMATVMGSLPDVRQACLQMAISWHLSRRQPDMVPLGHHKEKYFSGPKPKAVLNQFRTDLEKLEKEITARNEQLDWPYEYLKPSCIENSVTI

Values joined by “and” are separate entries in the source; they are usually repeats but may differ in a detail not shown here. Equal entries are not always repeated. The whole screen tested about 580,000 compounds, of which about 6,100 (1.1%) were called active. The inconclusive results got no clear call from the source; some entries with a clear call stand among them for comparison. The call rests on the fitted dose curve; in most records, active means well fitted inhibition curve with a large enough effect; inconclusive means small, poorly fitted or top-dose-only effect, or another doubt; inactive means no such curve, though single readings can be large or run the other way. Potencies beside an inconclusive call are fits to weak or partial responses and may not hold up.
The molecules below were run against Polyunsaturated fatty acid lipoxygenase ALOX12 (Homo sapiens) (UniProt P18054) (assay: Primary qHTS assay for inhibitors of human arachidonate 12S-lipoxygenase (ALOX12): Round 2). Conditions: purified 12hLO, xylenol orange hydroperoxide absorbance; activity change, negative = inhibition: at 108 µM (top of the series) unless noted.
How it was run: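 Hydroperoxide product was detected by ferrous iron/xylenol orange as the 573 to 405 nm absorbance ratio. Arachidonic acid at 40 uM (final) was turned over for 30 min at room temperature by 150 nM human 12hLO, pH 7.0 Hepes buffer, after 15 min compound preincubation.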
With `O=S1(=O)c2ccccc2Nc2ccccc21` the “activity change, negative = inhibition” value was inactive: 0%. With `CC(C)(C)c1ccc(-c2nc(C#N)c(NCc3ccncc3)o2)cc1` the Potency was inconclusive: 112 µM [inhibitor, single point]. For `N=c1n(CC(=O)c2ccc(Br)cc2)c2ccccc2n1Cc1ccccc1`, the Potency was inconclusive: 44.7 µM [inhibitor, partial curve, poor fit]. `C=CCOC(=O)C1=C[C@H](c2cn(C(C)=O)c3ccccc23)C[C@H](OCCCCO)O1` was tested, and the Potency was inconclusive: 44.7 µM [inhibitor, partial curve, poor fit]. With `COc1cccc(NC(=O)CCC(=O)Nc2ccc3nc(N4CCOCC4)cc(C)c3c2)c1` the Potency was inconclusive: 79.4 µM [inhibitor, partial curve, poor fit]. With `C=CC[C@@H](CC(=O)NCCO)C(=O)N[C@@H](COC(=O)[C@@H](CC=C)Cc1ccc(F)cc1)Cc1ccccc1` the Potency was inconclusive: 112 µM [inhibitor, single point]. With `O=C1C(SCCO)=C(SCCO)C(=O)c2ccccc21` the Potency was inconclusive: 35.5 µM [inhibitor, partial curve, poor fit] and inconclusive: 44.7 µM [inhibitor, partial curve, poor fit]. For `CC[n+]1c(/C=C/C=C/N(C(C)=O)c2ccccc2)sc2ccccc21`, the Potency was inconclusive: 35.5 µM [inhibitor, partial curve, poor fit]. `COc1cc2c(cc1OC)CN(c1ncccc1[N+](=O)[O-])CC2` was tested, and the Potency was inconclusive: 100 µM [inhibitor, single point]. In the case of `CCOC(=O)c1c(C)oc2ccc(N(C(=O)c3ccncc3)S(=O)(=O)c3ccc(CC)cc3)cc12`, the “activity change, negative = inhibition” value is reported as inactive: 0%. For `CCCc1c(C(=O)NNc2ccc(C)cc2)cnn1-c1ccccc1`, the Potency was inconclusive: 31.6 µM [inhibitor, full curve, poor fit]. `Cc1cccc(OCc2nc(C)c(C(=O)Nc3cc(C)ccc3C)s2)c1` was tested, and the “activity change, negative = inhibition” value was inactive: -8.25%. `CCCCCCCCN1C(=O)[C@H](CC(=O)NCc2ccc(C)o2)C[C@@]2(C(=O)OC)CCCCC=C12` was tested, and the Potency was active: 35.5 µM. For `C=CCc1ccccc1OCC(O)CN1CCN(Cc2ccc3c(c2)OCO3)CC1` (centres undefined), the Potency was inconclusive: 35.5 µM [inhibitor, partial curve]. For `CCOC(=O)c1c(C)[nH]c(CCC(=O)Nc2cc(Cl)ccc2OC)c1C`, the Potency was inconclusive: 22.4 µM [inhibitor, partial curve, poor fit]. For `CCCn1nc(NC(=O)CC(C)C)c2cc3ccccc3nc21`, the Potency was inconclusive: 50.1 µM [inhibitor, partial curve, poor fit]. `O=C(O)CSCC(=O)NC1CCSC1=O` (centres undefined) was tested, and the Potency was inconclusive: 24.3 µM [inhibitor, partial curve]. `O=C(CCC(=O)N1CCN(c2ccccc2F)CC1)c1ccc(Cl)s1` was tested, and the Potency was inconclusive: 4.47 µM [inhibitor, full curve, poor fit]. With `Cc1cc2c(F)c(Oc3ncnn4cc(OC[C@@H](C)O)c(C)c34)ccc2[nH]1` the Potency was inconclusive: 27.3 µM [inhibitor, partial curve, poor fit]. `CCOc1ccc(NS(=O)(=O)c2ccc(C(=O)N(C)CC(=O)Nc3cccc(OC)c3)cc2)cc1` was tested, and the Potency was inconclusive: 100 µM [inhibitor, partial curve, poor fit]. For `Cc1nc2ccc(NC(=O)CC3CCCC3)cc2s1`, the Potency was inconclusive: 2.82 µM [inhibitor, full curve, poor fit]. In the case of `CCc1noc(C)c1C(=O)Nc1cc(S(=O)(=O)N2CCOCC2)ccc1N1CCN(CC)CC1`, the Potency is reported as inconclusive: 56.2 µM [inhibitor, partial curve, poor fit]. In the case of `CCC(=O)Nc1cccc(NC(=S)NC(=O)c2cc3ccccc3o2)c1`, the “activity change, negative = inhibition” value is reported as inactive: -11.5%. In the case of `CC(C)C(=O)N[C@H]1C[C@@H](Cc2cc(COc3ccccc3)on2)C1(C)C`, the Potency is reported as inconclusive: 89.1 µM [inhibitor, partial curve, poor fit]. With `Cc1ccccc1COc1ccc(/C=N/NC(=O)c2nnn(-c3nonc3N)c2CN2CCC(C)CC2)cc1` the “activity change, negative = inhibition” value was inactive: 6.65%. For `Cc1nn(C(C)(C)C)c(OC(=O)c2ccc3c(c2)OCO3)c1S(=O)(=O)c1ccccc1`, the “activity change, negative = inhibition” value was inactive: 0%. `O=C(c1cccs1)N1CCC(c2nc3ccccc3s2)CC1` was tested, and the Potency was inconclusive: 63.1 µM [inhibitor, partial curve, poor fit]. With `CCOc1ccc(OCC)c(NC(=O)CN2CCN(c3cc(C)ccc3C)CC2)c1` the Potency was inconclusive: 1 µM [inhibitor, full curve, poor fit]. For `Fc1cc(F)cc(-c2oncc2-c2nnnn2-c2ccccc2)c1`, the “activity change, negative = inhibition” value was inactive: -5.95%. For `CSCC(=O)N[C@H]1CCN2C(=O)c3cc(-c4ccc(Cl)cc4)ccc3NC(=O)[C@H]12`, the Potency was inconclusive: 79.4 µM [inhibitor, partial curve, poor fit]. For `O=C(O)CCCCCCCCC#CC#CCCCC[n+]1ccccc1`, the “activity change, negative = inhibition” value was inactive: 19.8%. For `C[N+](C)(C)CCOC(=O)C1(c2ccccc2)CCCC1`, the “activity change, negative = inhibition” value was inactive: 154%. With `Cc1c(Cl)cccc1Nc1nn2c(=O)c3ccccc3nc2s1` the Potency was inconclusive: 112 µM [inhibitor, partial curve, poor fit]. `CCOc1ccc(C(=O)Nc2ccc3sc(NC(=O)C(C)C)nc3c2)cc1` was tested, and the “activity change, negative = inhibition” value was inactive: -18.2%. For `COc1cc(/C=C2\NC(=O)NC2=O)cc(I)c1OCc1ccc(F)cc1`, the Potency was inconclusive: 35.5 µM [inhibitor, partial curve, poor fit]. In the case of `CN(CC(=O)NCCC#N)c1ccc(C(C)(C)C)cc1`, the Potency is reported as inconclusive: 28.2 µM [inhibitor, single point]. With `O=C(Cn1cc(F)c(=O)[nH]c1=O)NCCO` the “activity change, negative = inhibition” value was inactive: -2.54%. In the case of `COC(=O)C1=C(C)NC(=O)C1(NC(=O)c1cccc(C)c1)C(F)(F)F` (centres undefined), the activity change, negative = inhibition is reported as inconclusive: -31.4% [inhibitor]. In the case of `Cc1ccc(-n2c(C)cc(/C=N/NC(=O)CC3(C)OCCO3)c2C)cc1`, the Potency is reported as inconclusive: 35.5 µM [inhibitor, single point]. With `O=C(NCc1ccccc1)C1c2ccccc2OCC(=O)N1C1CC1` (centres undefined) the Potency was inconclusive: 39.8 µM [inhibitor, single point]. For `COc1cc(C(=O)Oc2ccc3c(=O)c(-c4ccccc4)coc3c2)cc(OC)c1OC`, the “activity change, negative = inhibition” value was inactive: -0.0973%. For `CCC1NC(=O)c2cccnc2-n2c1nc1cc(C)cc(C)c1c2=O` (centres undefined), the Potency was inconclusive: 31.6 µM [inhibitor, single point]. For `Cc1cccc(N2CCN(C(=O)c3ccc4c(c3)N(C)C3CCCCCN3C4=O)CC2)c1` (centres undefined), the “activity change, negative = inhibition” value was inactive: 19.1%. For `Cc1cccc(-c2nn3c(=O)cc(N4CCN(C(=O)COc5ccccc5Cl)CC4)nc3s2)c1`, the “activity change, negative = inhibition” value was inactive: 1.97%. For `CCNC(=O)C1(C)CCCN(Cc2ccccc2-c2ccccc2)C1` (centres undefined), the “activity change, negative = inhibition” value was inactive: -24.2%. `Cc1cccc(CNc2cc(-c3cccc(C#N)c3)ncn2)c1` was tested, and the Potency was inconclusive: 17.8 µM [inhibitor, partial curve, poor fit]. `COc1ccc2c(c1)c1ncn(Cc3ccc(F)cc3)c(=O)c1n2C` was tested, and the “activity change, negative = inhibition” value was inactive: -0.25%. `COC[C@H]1CCCN1C(=O)C[C@@H]1O[C@H](CNC(=O)c2ccc(C)cc2)[C@@H](O)[C@H]1O` was tested, and the activity change, negative = inhibition was inconclusive: -33.5% [inhibitor] [at 176 µM]. In the case of `CCCCN(C)C(=O)Cn1c(=O)n(Cc2ccc3c(c2)OCO3)c(=O)c2sccc21`, the Potency is reported as inconclusive: 17.8 µM [inhibitor, full curve, poor fit]. `CN1CC(=O)N(C2CCCNCC2)Cc2c(NCc3ccccc3F)ncnc21` (centres undefined) was tested, and the Potency was inconclusive: 10 µM [inhibitor, full curve]. For `Cc1cccc(N2CCN(S(=O)(=O)c3ccc(-c4cnc(C5CC5)o4)cc3)CC2)c1C`, the Potency was inconclusive: 141 µM [inhibitor, partial curve, poor fit]. For `Cc1ccc(Cn2c(SCC(=O)NCc3ccccc3)nc3ccsc3c2=O)cc1`, the “activity change, negative = inhibition” value was inactive: -15.7%. In the case of `O=[N+]([O-])c1ccccc1CN1CCN(S(=O)(=O)c2ccccc2)CC1`, the Potency is reported as inconclusive: 14.1 µM [inhibitor, partial curve, poor fit]. In the case of `Cc1ccccc1C1=C/C(=C(\SS/C(C(=O)c2ccc(OCC(=O)O)c(Cl)c2Cl)=C2\C=C(c3ccccc3C)SS2)C(=O)c2ccc(OCC(=O)O)c(Cl)c2Cl)SS1`, the Potency is reported as active: 5.62 µM. In the case of `CCN1CCN(c2nc(C)c3c(c2C#N)CCCC3)CC1`, the Potency is reported as inconclusive: 5.01 µM [inhibitor, full curve, poor fit]. `CCOC(=O)c1cc(C#N)c(NCc2ccccc2)nc1C` was tested, and the “activity change, negative = inhibition” value was inactive: -2.62%. `CCc1ccc(/C=C2\SC(=S)N(CCC(=O)NC3=NCCS3)C2=O)cc1` was tested, and the “activity change, negative = inhibition” value was inactive: -0.72%. With `CC(=O)c1c(N2CCN(C(=O)c3ccco3)CC2)nc(=S)n(-c2ccccc2)c1C` the Potency was inconclusive: 1.78 µM [inhibitor, full curve, poor fit]. `NCc1ccccc1-c1ccccn1` was tested, and the Potency was inconclusive: 7.08 µM [inhibitor, full curve, poor fit]. With `O=c1c(Oc2ccccc2F)coc2cc(OCc3cnn(-c4ccccc4)c3)ccc12` the Potency was inconclusive: 50.1 µM [inhibitor, partial curve, poor fit]. With `COc1ccc(-c2[nH]c(-c3ccc(O)cc3)nc2-c2ccccc2)cc1` the Potency was inconclusive: 141 µM [inhibitor, single point]. In the case of `CN(C)S(=O)(=O)c1ccc2c(c1)nc(CCC(=O)NCCc1ccc(Cl)cc1)n2C`, the “activity change, negative = inhibition” value is reported as inactive: 17.8%. In the case of `CSc1c(C#N)c(N)nc2sc(C(=O)c3ccccc3)c(N)c12`, the Potency is reported as inconclusive: 3.16 µM [inhibitor, full curve, poor fit]. `O=C(CCl)NC(Cc1ccccc1)C(=O)OCC(=O)c1ccc(-c2ccccc2)cc1` (centres undefined) was tested, and the Potency was inconclusive: 39.8 µM [inhibitor, partial curve, poor fit].
On the % scale 0 is the no-effect control and ±100 the full control effect; potency means the concentration at half of the fitted maximal effect.
